In patent US20220344599A1, “METAL COMPLEX AND ELECTRON TRANSPORTING MATERIAL COMPRISING SAME” (DYDEN CORPORATION, priority 2019, published 2022) one finds Driving voltage and Relative lifetime data, which are given here for 7 compounds.

Data set [1] in a line: voltage-current-luminance characteristic of organic EL element with the material as electron transport layer. The text has this:
Produced were an organic electroluminescent element of the element configuration. shown in FIG. 1 (Element (A)) and an organic electroluminescent element having an element configuration exactly same as that shown in FIG. 1 except that an electron inlection layer is provided between the cathode and the electron transport layer (element (B)). The film thickness of each layer is as follows.
Element (A): anode/hole injection layer/hole transport layer/light emitting layer/electron transport layer/ cathode
Element (B): anode/hole injection layer/hole transport layer/light emitting layer/electron transport layer/electron injection layer/cathode
Electron injection layer: LiF (0.5 nm)
Liquid materials for forming an electron transport layer each were prepared by dissolving a metal complex shown in Table 2 at a concentration of 7.5 g/L in a solvent shown in Table 2.
In order to make elements including a metal alkoxide added for the purpose of achieving a further driving voltage and a longer lifetime, also prepared were liquid materials for forming an electron transport layer including a metal alkoxide as a dopant. The liquid materials for forming an electron transport layer including a metal alkoxide added each were prepared by adding a metal alkoxide solution to the solution of a metal complex. The solution of a metal complex was prepared by dissolving a metal complex shown in Table 2 at a concentration of 7.5 g/L in a solvent shown in Table 2. The metal alkoxide solution was, in the case of lithium-n-butoxide (LiOnBu), prepared by dissolving a reagent manufactured by Kojundo hemical Lab. Next, the 7.5 g/L metal complex solution and the 5 g/L metal alkoxide solution were mixed such that the content of the dopant (metal alkoxide) reached 10% by weight with respect to the metal complex, and then the mixed solution was subjected to film formation.
A comparative liquid material for forming an electron transport layer was prepared in the same manner as described above except that LiBPP was used instead of the metal complex.
For the voltage-current-luminance characteristic of the organic EL element made, a voltage from 0 V to 10 V was applied, and the current value was measured every 0.1 V using a DC voltage current source/monitor (6241A and 7351A manufactured by ADCMT).
In (2) Production of Organic Electroluminescent Element described above, using L101-Cs as the metal complex of the electron transporting material and. LiOBu as the dopant, an element including no electron injection layer (A) or an element including an electron injection layer (B) was produced. The physical property, values of driving voltage (V), current efficiency (ηc), and relative lifetime of the elements given were also shown in Table 2. The presence or absence of the electron injection. layer was also described in Table 2.
An element was produced in the same manner as in Example 1 except that the liquid material for forming an electron transport layer was replaced by one shown in Table 2 in Example 1. The physical property values of driving voltage (V), current efficiency (ηc), and relative lifetime of the elements given were also shown in Table 2.

The nature of data set [2]: lifetime of organic EL element (luminance half-life, constant current driving). The following applies: 25° C., relative to Example 3 with electron injection layer (100). How it is done:
The lifetime of the organic EL element made was measured using a lifetime evaluation measuring apparatus (manufactured by Kyushu Keisokki Co., Ltd.). The element was placed in the thermostatic chamber at a constant temperature of 25° C., and the changes in the luminance voltage associated with constant current driving were measured. In this case, the acceleration factor for evaluation of the element was 1.758. Comparison was made based on the values of half-life, at which the luminance dropped to the half of the initial luminance, obtained in accordance with the driving time converted in terms of 100 cd/m^2.
wherein L0: initial luminance [cd/m^2], L: converted luminance [cd/m^2], T1: measured luminance half-life, and T: converted luminance half-life
The relative lifetime was based on the lifetime of Example 3 [material complex (L301-Cs)+dopant (LiOBu)+electron injection layer](100).

The mark [3] stands for this setting: element (A), no electron injection layer, dopant LiOBu 10% by weight, solvent as in Table 2.
Where [4] appears, read: element (B), LiF electron injection layer, dopant LiOBu 10% by weight, solvent as in Table 2.
The mark [5] stands for this setting: element (A), no electron injection layer, dopant LiOBu.
Where [6] appears, read: element (B), LiF electron injection layer, dopant LiOBu.

Regarding `Oc1cccc2c1nc(-c1ccccc1)n2-c1cccc(-c2ccc3ccc4cccnc4c3n2)c1` [L101-Cs], the Driving voltage is 4.7 V in data set [1] (setting [3]) and 4.6 V in data set [1] (setting [4]). The values for the Relative lifetime in data set [2] (setting [5]) and in data set [2] (setting [6]) were 72 and 74, respectively.
On the same counts, the results for `Oc1cccc2c1nc(-c1ccccc1)n2-c1cccc(-c2ccc3ccc4cccnc4c3n2)c1` [L101-Rb] are 5 V, 5 V, 74 and 73.
For the compound `Oc1cccc2oc3cc(-c4ccc5ccc6cccnc6c5n4)cnc3c12` [L301-Cs], the results for the Driving voltage in data set [1] (setting [3]) and in data set [1] (setting [4]) were 4.4 V and 4.3 V, respectively. Further, the Relative lifetime in data set [2] (setting [5]) is listed as 90; in data set [2] (setting [6]), 100.
On the same counts, the results for `O=P(c1ccccc1)(c1ccc2ccc3cccnc3c2n1)c1ccc(O)c2c1oc1cccnc12` (stereo not shown) [L302-Cs] are 5.3 V, 4.9 V, 45 and 80.
In the same order, the values of `O=P(c1ccccc1)(c1ccc2ccc3cccnc3c2n1)c1ccc(O)c2c1oc1cccnc12` (stereo not shown) [L302-Li] are 6.2 V, 6 V, 11 and 11.
In the case of `O=P(c1ccccc1)(c1ccccc1)c1ccc2ccc3ccc(-c4ccc(O)c5c4oc4cccnc45)nc3c2n1` [L303-Cs], the Driving voltage is on record as 6.9 V in data set [1] (element (A), no electron injection layer, no dopant, 1-Heptanol) and 5.7 V in data set [1] (element (B), LiF electron injection layer, no dopant, 1-Heptanol). For the same compound, the Relative lifetime in data set [2] (element (A), no electron injection layer, no dopant) is on record as 28; in data set [2] (element (B), LiF electron injection layer, no dopant), 18.
In the case of `O=P(c1ccccc1)(c1ccccc1)c1ccc2ccc3ccc(-c4ccc(O)c5c4oc4cccnc45)nc3c2n1` [L303-Rb], the Driving voltage in data set [1] (setting [3]) and in data set [1] (setting [4]) was 4.5 V in each case. Besides, the Relative lifetime in data set [2] (setting [5]) and in data set [2] (setting [6]) was 16 throughout.
